Source: the supplement of paper PMC5949888
Most values lie at the floor of the assay. Slopes are relative: functional sequences can read slightly below zero.

These substances were tested on Saccharomyces cerevisiae PS128 hsf1 delta, HSF1(1-493) fusion (assay: growth estimate (transactivation domain function in HSF1 fusion, heat-shock survival) (a.u. (slope of normalised read count over time)); higher = stronger growth at 37°C, i.e. more transactivation activity). Conditions: library: random library.

| Substance | growth estimate |
| --- | --- |
| DDPSNLAQRLGVQY | < -0.25 |
| ANSAVEVSEFGPVSLTEG | < -0.25 |
| DRNPRRVSHSLRSHVCSLSP | < -0.25 |
| CLGAPEKFSLA | < -0.25 |
| PSEVTVPAAGYVARGDLMQH | < -0.25 |
| PGTVVRNLSYT | < -0.25 |
| FRPSSKRLVAYPCDFEGTAG | -0.231 |
| TDVMLSVCTL | < -0.25 |
| NVKVLCE | < -0.25 |
| IRGRLLSPTDTGVVEIK | < -0.25 |
| GATGRALLVTGRAC | < -0.25 |
| SSKHVILPRS | < -0.25 |
| MRRVRLI | < -0.25 |
| GVKVKALASNSSQSGDGGAF | < -0.25 |
| QLPPLI | < -0.25 |
| YTRT | < -0.25 |
| MVAAFAVARFVTSSRDTLIR | < -0.25 |
| LPRVQYAYYGRLNSWTSCNT | < -0.25 |
| QSKEIQTDAWWWSRSGFTYR | < -0.25 |
| WRPRTCDAAPGPIHGLHTCR | < -0.25 |
| GSFCLKQQRDVGT | < -0.25 |
| EGKPQPLAGAER | < -0.25 |
| SRVYSIGSRRCRLLSDPGAQ | < -0.25 |
| CCLHVASATVVLHTVTLPLS | < -0.25 |
| DSNRAGTFKSESVSSLLQPR | < -0.25 |
| DELAKLVLPGVHRQGSRRAI | < -0.25 |

| Substance | growth estimate |
| --- | --- |
| PSRVF | < -0.25 |
| TYKILRHFHIRTAWKLPITV | < -0.25 |
| VRYILR | < -0.25 |
| RKGLGGGLGLGKRIQSIASG | < -0.25 |
| PDAS | < -0.25 |
| VFTVHNHQNERFRI | < -0.25 |
| CDQ | < -0.25 |
| GLLSRQERGSNINGY | -0.245 |
| RSRHWLFCRASTDSRIVSCQ | < -0.25 |
| PGRLQEKLWGHTDNY | < -0.25 |
| LYGVVCD | < -0.25 |
| FLHRDELRSSTGLRPVWVRV | < -0.25 |
| PTEFVYCARIYGRRCPKSRL | -0.25 |
| IDTQMPP | < -0.25 |
| PWPGVWESTGRPYDVSV | < -0.25 |
| GCKGLKAHSVGSGDGCSPIS | < -0.25 |
| SRHYSPYGCCAQSLPLLSP | < -0.25 |
| AWGQLGLQNAGQESALTPNE | < -0.25 |
| TQQAIV | < -0.25 |
| VDFGAVVIVLYEDTVDSGHK | < -0.25 |
| DVSETPLVSTQ | -0.245 |
| IYVCC | < -0.25 |
| FYNA | < -0.25 |
| NDDGERWWCHLVIRQWCRSL | < -0.25 |
| RAYVPKVCIG | < -0.25 |
| NIHA | < -0.25 |

| Substance | growth estimate |
| --- | --- |
| RKAVAHMSVRHSGAE | < -0.25 |
| VRTSAHARMNGSYDTVRFLW | < -0.25 |
| IYVNIFTVEVAGGASKNDVS | < -0.25 |
| VLLRRTDSEMHRA | < -0.25 |
| ATVCIPDLNFGPILCS | < -0.25 |
| RSSTIFNTAFPKTASQPPLG | < -0.25 |
| YEEDRDCCPGRVSGSCFAAT | < -0.25 |
| SGVLDISCAATPVQAQ | < -0.25 |
| YRQRRCF | < -0.25 |
| SPNCYQR | -0.243 |
| CLVIQAQKTIRC | < -0.25 |
| RVGARYACSRSHQGRRFQKQ | < -0.25 |
| SQNPYGLV | < -0.25 |
| GQRSRRTPPLVYI | < -0.25 |
| PPGRVE | < -0.25 |
| DRSDLFGASQHGACVHTRRS | < -0.25 |
| WFVTVGSQAYGDLTYSCPLS | < -0.25 |
| LGGDQPVTTAP | < -0.25 |
| PRINI | < -0.25 |
| LRSWDPGHKSRQSHAGRVSS | < -0.25 |
| CEEGM | < -0.25 |
| ICWSIVGFVWTHKRLVLENM | < -0.25 |
| SEEGLVSTEAADTFRWILKC | < -0.25 |
| TEHDCDI | < -0.25 |
| AQGLLLFPVPRNIVHRYAPL | < -0.25 |
| WKGIHNGRGMPHWLGFTSRV | < -0.25 |

| Substance | growth estimate |
| --- | --- |
| EGLLSHDASRRHRA | < -0.25 |
| SHQCGRQRGGEMHDQIYSVP | < -0.25 |
| PAF | < -0.25 |
| GPGLWSGYSAIQIPRDEFRD | -0.159 |
| SRGGYA | < -0.25 |
| RIRGKR | < -0.25 |
| AFPRRSRNAQASASGYLIGS | < -0.25 |
| VEPVLNLLGTPSSLREWHNM | < -0.25 |
| SYYARLDSAYTFCFRR | < -0.25 |
| AQKFGLCGI | < -0.25 |
| VTVFLLGDLV | < -0.25 |
| VAEQSVACL | < -0.25 |
| TVALAD | < -0.25 |
| LLVHCAPLGLIRFGH | < -0.25 |
| VATKQCTPLVSIVTLGGGVS | < -0.25 |
| YQANSGRMLNSG | < -0.25 |
| IWLSL | < -0.25 |
| VNRSSVQPGYLGCIPTRGPA | < -0.25 |
| ELEGSVPC | < -0.25 |
| LVH | < -0.25 |
| RYSSLCNRSGADNV | < -0.25 |
| LYDAEFHIIDRVVPNLASPV | -0.246 |
| PVGRARSTYPTPDNFSSS | < -0.25 |
| STTEGECDFPDHLLALRPSP | < -0.25 |
| VLDR | < -0.25 |
| SNTRAWYGGHCFSS | < -0.25 |

| Substance | growth estimate |
| --- | --- |
| GSR | < -0.25 |
| SVGAGDTGKSEFRIVGMFAR | < -0.25 |
| RPRAPSTRRGKRRRCELCMM | < -0.25 |
| EAICV | < -0.25 |
| IVTSGLSKTFVILVQSRVWR | < -0.25 |
| RPRN | < -0.25 |
| RTWSSRRTREFE | < -0.25 |
| LHPTLRKLLCPTIVERRTKS | < -0.25 |
| QPSAGLGLYRRNQMEPTTRK | < -0.25 |
| IILPYQSQCW | < -0.25 |
| EEKHILATMDRT | < -0.25 |
| TRTTITGLSNDGQCLAFITS | < -0.25 |
| FPAGPWMRPIHRVSIMMPLP | < -0.25 |
| GLHKREGGSLVIPLADVAWM | < -0.25 |
| IVGTRRSLVRDLCTHVVGDT | -0.229 |
| ASNASRSTANEIGSIQRWGC | < -0.25 |
| SRYGPQV | < -0.25 |
| LRLRGNAGSSFRF | < -0.25 |
| SFRCG | -0.241 |
| AEAVHFSVSHYEESLFFVGR | -0.246 |
| TWHWWRKELVKQRVRNYRTG | < -0.25 |
| RNAVLCASVTWQHIGHDSVA | < -0.25 |
| WECQRLDFAVR | < -0.25 |
| CEYRALRNIGSKSSDKSHVL | < -0.25 |
| DARGPTSNLTGEGDKTGLFG | < -0.25 |
| LADKGGACSE | < -0.25 |

| Substance | growth estimate |
| --- | --- |
| GMSRTVQINDWNVGPRSK | < -0.25 |
| DVLHK | < -0.25 |
| QRVCVERRGVGTARGKG | < -0.25 |
| RGAFGPGYAMVRSKDCRLQR | < -0.25 |
| LTKRTRWHTMLLSCGS | < -0.25 |
| GSNMDIGQIVRIE | < -0.25 |
| IAH | < -0.25 |
| SGKIPGGWQCGSGRTRHEDN | < -0.25 |
| IYCRTRVNTRLGNRREAHIG | < -0.25 |
| NAAIAAVTATQGMTVRYGTL | < -0.25 |
| CKGSLEKVYKFDRLKSALSD | < -0.25 |
| PTSLQEGAQ | < -0.25 |
| DLNTSALVWKAL | < -0.25 |
| VILRERGLALHNAGME | < -0.25 |
| LNSIRLVLTCI | < -0.25 |
| LDVYVTDQSPFAANSADNLV | < -0.25 |
| GLSVGGVLIR | < -0.25 |
| ADFRLSKLRIFRHWVPAA | < -0.25 |
| SLKLYLRPA | < -0.25 |
| FARMPSAIKYYLVKVHRGAR | < -0.25 |
| ISVKHLDA | < -0.25 |
| PTTIRCMACIWIGGI | < -0.25 |
| QRTDMGMLGAR | < -0.25 |
| RWMRKLRKEGEDADFMIRHR | < -0.25 |
| NAKFSAELLLRKLKVARLHL | < -0.25 |
| MEVRVKHVVTNIGCN | < -0.25 |

Copied from the list:
growth estimate with DLNTSALVWKAL is entered as < -0.25
growth estimate with ISVKHLDA is entered as < -0.25
growth estimate with RGAFGPGYAMVRSKDCRLQR is entered as < -0.25
growth estimate with MEVRVKHVVTNIGCN is entered as < -0.25
growth estimate with QRTDMGMLGAR is entered as < -0.25
growth estimate with DVLHK is entered as < -0.25
growth estimate with VILRERGLALHNAGME is entered as < -0.25

(listing goes on)

| Substance | growth estimate |
| --- | --- |
| RGKSGDRSEAPYLCRPDASR | -0.245 |
| GVAGAFSPSSDLRHIRAHFG | < -0.25 |
| AQGSSFLSSNRSDLTGGFCA | < -0.25 |
| LPERRGIVCV | < -0.25 |
| DREIA | -0.246 |
| VGCSG | < -0.25 |
| WNPTRLWVPFWATVGTP | < -0.25 |
| TRGVFLVHSTPPLGEVTEPE | < -0.25 |
| PSRIQSPAKMLCAKDVRILA | < -0.25 |
| WLA | < -0.25 |
| KVRQNTHVRAWRVQPAAGGT | < -0.25 |
| AGPGVVRWSWHSGKRFSHAT | < -0.25 |
| LVDYIKIA | < -0.25 |
| VVDQSM | < -0.25 |
| NSPLRW | < -0.25 |
| GHTIHQEENAIHAADQLFAP | < -0.25 |
| GCHLDWRLEKCNREGTHFDR | < -0.25 |
| DTSAC | < -0.25 |
| SSRVLLGCQDNARQNTAVAG | < -0.25 |
| RLASLAV | < -0.25 |
| LAQSRATRLFI | < -0.25 |
| TKSPRSGIFCKQPQSLSWNS | < -0.25 |
| MLE | < -0.25 |
| DPWCDKEWAGRGSGYS | < -0.25 |
| VARNTANLAFTEKSRGWIRV | < -0.25 |
| RREHWSMIVYG | < -0.25 |

| Substance | growth estimate |
| --- | --- |
| NKAATFMISIVYVISSNVWR | < -0.25 |
| GFPCDTHTYLLVSVTRGVAL | < -0.25 |
| GLKDTAGSSSVSMQAQARPK | < -0.25 |
| ECAARAPPG | < -0.25 |
| SSRGT | < -0.25 |
| RTKSVALLWRGS | < -0.25 |
| TAKRVNKSSLCTLDIRTPKA | < -0.25 |
| TDQHRPVLQGRGAEGATPAT | < -0.25 |
| HVPGGPANSPFCRFERI | < -0.25 |
| KGVLPRTR | < -0.25 |
| IKYGARSQG | < -0.25 |
| PRNGARLRPNVSRAPLYTRS | < -0.25 |
| GSPLVPPHAFFR | < -0.25 |
| RTARTFGAYHGESVLQG | < -0.25 |
| LLFWERSGKLSSVQTMLSYA | -0.246 |
| RKLLWDDHILFER | < -0.25 |
| DYLVYTNMGTTNVHYRSGAL | < -0.25 |
| WFDAKPRHGMKPTVNWLRQI | < -0.25 |
| GSGLLILVTFHDKQ | < -0.25 |
